Record: PubChem BioAssay AID602196 (INSERM, 2012)
Aim: 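Genes whose knock-down alters cisplatin killing of lung cancer cells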. Cells: human A549 lung cancer cells. Knock-down reagent: siRNA pair against human genes. Time to read-out: 48 h transfection before cisplatin; time from cisplatin to read-out not stated. Challenge: cisplatin at a dose killing half of control-siRNA cells; exact dose and duration not given. Measured: 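Shift in cisplatin death relative to control siRNA, from -50 (all cells die) to +50 (no cells die); siRNAs harmful on their own scored 0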. Direction: two-siRNA summed score (-2 to +2): higher = both siRNAs protect from cisplatin killing; -2 means both sensitise; mean protection from cisplatin (shift in death) and protection from cisplatin (shift in death), siRNA C: higher = protection from cisplatin killing. Hit rule: 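Each siRNA scores 0 if harmful alone by LDH or WST-1, otherwise +1 if it reduces and -1 if it increases cisplatin killing; a gene is active when both siRNAs agree (sum +2 or -2)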. Calls: active = both siRNAs shift cisplatin killing the same way; inactive = no consistent shift, or siRNA harmful alone.
Shown is an unselected part of about 23,000 reagents tested. 455 of all reagents (2%) count as active. 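Active includes both protection and sensitisation; some change values fall well beyond the stated -50 to +50 range.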 Reagents against one gene are numbered here. Further read-outs or replicates are left out here. The record does not give: the amount of reagent.

gene	reagent no.	two-siRNA summed score (-2 to +2)	mean protection from cisplatin (shift in death) (%)	protection from cisplatin (shift in death), siRNA C (%)	outcome
DPY19L3-DT	1	1	10.4	-11.3	inactive
NFE2L3	1	0	2.6	6.2	inactive
PRKAG1	1	0	-7.5	-4.9	inactive
RAB6C	1	1	8.7	-8.4	inactive
MGC24125	1	0	15.4	31.8	inactive
KDM2B	1	-1	-19.3	-14.5	inactive
RASL12	1	0	5.2	-1.6	inactive
LOC401256	1	0	3.6	6.8	inactive
GSTM2	1	0	10.1	14	inactive
ERICH5	1	-1	-6.7	-19.5	inactive
LINC00701	1	0	5.4	13.9	inactive
LOC340529	1	0	-2.8	-22.7	inactive
SNX4	1	0	-2.3	-7	inactive
TMPRSS11A	1	0	0.4	7.6	inactive
EFCAB3	1	0	4.3	6.8	inactive
NPTN	1	0	2.8	0.8	inactive
LYSMD2	1	0	2	5	inactive
PKD2L2	1	-1	-9.1	-13	inactive
TMEM201	1	1	6.6	10.6	inactive
PCDHA5	1	0	8.9	10.1	inactive
KIF24	1	0	7.7	-16.9	inactive
KIF24	2	1	17.2	23.5	inactive
LETM2	1	0	3.7	5.9	inactive
CTBP1	1	0	-6.4	-17.5	inactive
CTBP1	2	0	0.5	-3.6	inactive
CENPA	1	0	-0.4	4.4	inactive
CERT1	1	0	-4.4	-10.8	inactive
TRPA1	1	-1	-17.6	-14.6	inactive
LINC02796	1	0	10.4	3.5	inactive
CD244	1	-1	-31.2	-39.1	inactive
FCRLB	1	1	11.8	11.8	inactive
GJC3	1	1	14.7	18.7	inactive
RETREG1	1	0	9.7	13.4	inactive
LINC00158	1	0	-5.6	-0.1	inactive
ELMO3	1	0	-6.7	1.5	inactive
APOL6	1	0	-4	-15	inactive
LOC401819	1	0	-23.9	-22.8	inactive
PPM1M	1	1	16.7	25.3	inactive
IDO2	1	-1	-12.4	-7.7	inactive

Part of the list above, limited to “mean protection from cisplatin (shift in death) (%)”.
CTBP1 #2 = 0.5
CENPA = -0.4
CERT1 = -4.4
